PMC8273886
These are yes or no findings as the source states them, for the method shown. Binding seen in cells or lysates may run through a third protein. Some binding calls cover weakened binding; strength is not graded here.

The chains behind the UniProt entries cited, without tags or fusion partners.
UniProt P33534: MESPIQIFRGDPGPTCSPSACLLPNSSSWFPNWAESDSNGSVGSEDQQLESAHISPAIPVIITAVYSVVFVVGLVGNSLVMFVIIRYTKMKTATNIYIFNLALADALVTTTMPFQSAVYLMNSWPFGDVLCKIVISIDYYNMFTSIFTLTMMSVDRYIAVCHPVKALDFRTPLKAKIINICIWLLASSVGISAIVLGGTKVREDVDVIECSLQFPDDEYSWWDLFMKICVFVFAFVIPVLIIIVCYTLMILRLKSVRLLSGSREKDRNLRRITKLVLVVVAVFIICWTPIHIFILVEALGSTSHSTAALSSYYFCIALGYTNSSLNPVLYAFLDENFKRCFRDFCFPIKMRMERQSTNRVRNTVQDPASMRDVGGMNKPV
UniProt P32121: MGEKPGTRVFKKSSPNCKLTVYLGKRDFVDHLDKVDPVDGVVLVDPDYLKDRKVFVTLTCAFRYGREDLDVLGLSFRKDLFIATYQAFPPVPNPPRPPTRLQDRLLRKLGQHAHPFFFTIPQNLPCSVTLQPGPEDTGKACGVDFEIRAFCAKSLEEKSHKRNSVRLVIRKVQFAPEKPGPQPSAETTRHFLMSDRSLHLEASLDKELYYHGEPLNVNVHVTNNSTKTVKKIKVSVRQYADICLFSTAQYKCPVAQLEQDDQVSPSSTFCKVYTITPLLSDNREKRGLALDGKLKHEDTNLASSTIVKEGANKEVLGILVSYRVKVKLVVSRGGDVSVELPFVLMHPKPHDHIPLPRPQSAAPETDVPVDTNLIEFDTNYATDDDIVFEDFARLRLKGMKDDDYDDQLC

Molecular target: mouse κ-opioid receptor (KOR) tagged with EGFP (mouse) (UniProt P33534)
Assay: FRET or BRET; HEK293 cells co-transfected with human β-arrestin-2 nano-luciferase and mouse KOR-EGFP (1:10); furimazine; read 5 min after adding dyn A 1–13 or helianorphin-19 at 37 °C

With “human β-arrestin-2 fused to nano-luciferase (from UniProt P32121 1-409)” the binding was “binds”.
